Test results as given in patent US11618742B2, “Radical polymerization initiator, composition containing same, cured product of composition, production method for cured product, and compound” (ADEKA CORPORATION, priority 2018, dated 2023).

Test: Curability (sensitivity): change in film thickness after exposure and water immersion
Conditions: exposure light having a wavelength peak of 400 nm or longer

Compound | Curing / sensitivity in words
O=C(O)c1cccc2c(=O)c3ccccc3sc12 [Compound 1] | excellent sensitivity
O=C(O)c1cccc2c(=O)c3ccccc3sc12 [Compound 61] | excellent sensitivity
